Literature values, collected in publication PMC10060569 (Frontiers in Pharmacology, 2023).
Values joined by “and” are separate entries in the source; they are usually repeats but may differ in a detail not shown here. Equal values may be shown once.

Details: administered orally; ref Desager et al., 1976; Dresse et al., 1978; cited from earlier work

For COc1ccc2cc([C@H](C)C(=O)O)ccc2c1 [Naproxen, naproxen], the “maximum plasma levels, oral” value is listed as 70–80 μg/ml and 300–350 µM and the “time to maximum plasma levels, oral” value is listed as “about 2 h”.
